From article PMC6514072
No constants are given. Whether binding was seen depends on the method and setting. Binding seen in cells or lysates may run through a third protein. These calls come from enrichment with a bait or labelling near it, and not all partners need be listed. Each block holds one binder with its values, some of them ahead of it.

Biological target: NEU1 sialidase (endogenous, plasma membrane of macrophages) (human (endogenous in THP-1)) (UniProt Q99519)
Assay: affinity purification with mass spectrometry; 4.8 x 10^8 macrophages differentiated from THP-1 cells; surface biotinylation (sulfo-NHS-LC-biotin), lysis in HEPES buffer pH 7.5 with 1% Triton X-100, monomeric avidin agarose, elution with 10 mM biotin, then immunoprecipitation with rabbit polyclonal anti-NEU1 on protein G Sepharose (overnight, 4 °C); SDS-PAGE, 23 bands, LC-MS/MS; rabbit IgG control; two independent purifications

B1: Lysyl oxidase homolog 4 (protein, UniProt Q96JB6 25-756)
chain: QSLGTTKLRLVGPESKPEEGRLEVLHQGQWGTVCDDNFAIQEATVACRQLGFEAALTWAHSAKYGQGEGPIWLDNVRCVGTESSLDQCGSNGWGVSDCSHSEDVGVICHPRRHRGYLSETVSNALGPQGRRLEEVRLKPILASAKQHSPVTEGAVEVKYEGHWRQVCDQGWTMNNSRVVCGMLGFPSEVPVDSHYYRKVWDLKMRDPKSRLKSLTNKNSFWIHQVTCLGTEPHMANCQVQVAPARGKLRPACPGGMHAVVSCVAGPHFRPPKTKPQRKGSWAEEPRVRLRSGAQVGEGRVEVLMNRQWGTVCDHRWNLISASVVCRQLGFGSAREALFGARLGQGLGPIHLSEVRCRGYERTLSDCPALEGSQNGCQHENDAAVRCNVPNMGFQNQVRLAGGRIPEEGLLEVQVEVNGVPRWGSVCSENWGLTEAMVACRQLGLGFAIHAYKETWFWSGTPRAQEVVMSGVRCSGTELALQQCQRHGPVHCSHGGGRFLAGVSCMDSAPDLVMNAQLVQETAYLEDRPLSQLYCAHEENCLSKSADHMDWPYGYRRLLRFSTQIYNLGRTDFRPKTGRDSWVWHQCHRHYHSIEVFTHYDLLTLNGSKVAEGHKASFCLEDTNCPTGLQRRYACANFGEQGVTVGCWDTYRHDIDCQWVDITDVGPGNYIFQVIVNPHYEVAESDFSNNMLQCRCKYDGHRVWLHNCHTGNSYPANAELSLEQEQRLRNNLI
binding: binds

B2: Myosin regulatory light polypeptide 9 (protein, UniProt P24844 1-172)
chain: MSSKRAKAKTTKKRPQRATSNVFAMFDQSQIQEFKEAFNMIDQNRDGFIDKEDLHDMLASLGKNPTDEYLEGMMSEAPGPINFTMFLTMFGEKLNGTDPEDVIRNAFACFDEEASGFIHEDHLRELLTTMGDRFTDEEVDEMYREAPIDKKGNFNYVEFTRILKHGAKDKDD
binding: binds

B5: CMRF35-like molecule 8 (protein, UniProt Q9UGN4 18-299)
chain: LSKCRTVAGPVGGSLSVQCPYEKEHRTLNKYWCRPPQIFLCDKIVETKGSAGKRNGRVSIRDSPANLSFTVTLENLTEEDAGTYWCGVDTPWLRDFHDPVVEVEVSVFPASTSMTPASITAAKTSTITTAFPPVSSTTLFAVGATHSASIQEETEEVVNSQLPLLLSLLALLLLLLVGASLLAWRMFQKWIKAGDHSELSQNPKQAATQSELHYANLELLMWPLQEKPAPPREVEVEYSTVASPREELHYASVVFDSNTNRIAAQRPREEEPDSDYSVIRKT
binding: binds

Continued, values first:

binding: binds
B3: Tyrosine-protein kinase Mer (protein, UniProt Q12866 21-999)
chain: AITEAREEAKPYPLFPGPFPGSLQTDHTPLLSLPHASGYQPALMFSPTQPGRPHTGNVAIPQVTSVESKPLPPLAFKHTVGHIILSEHKGVKFNCSISVPNIYQDTTISWWKDGKELLGAHHAITQFYPDDEVTAIIASFSITSVQRSDNGSYICKMKINNEEIVSDPIYIEVQGLPHFTKQPESMNVTRNTAFNLTCQAVGPPEPVNIFWVQNSSRVNEQPEKSPSVLTVPGLTEMAVFSCEAHNDKGLTVSKGVQINIKAIPSPPTEVSIRNSTAHSILISWVPGFDGYSPFRNCSIQVKEADPLSNGSVMIFNTSALPHLYQIKQLQALANYSIGVSCMNEIGWSAVSPWILASTTEGAPSVAPLNVTVFLNESSDNVDIRWMKPPTKQQDGELVGYRISHVWQSAGISKELLEEVGQNGSRARISVQVHNATCTVRIAAVTRGGVGPFSDPVKIFIPAHGWVDYAPSSTPAPGNADPVLIIFGCFCGFILIGLILYISLAIRKRVQETKFGNAFTEEDSELVVNYIAKKSFCRRAIELTLHSLGVSEELQNKLEDVVIDRNLLILGKILGEGEFGSVMEGNLKQEDGTSLKVAVKTMKLDNSSQREIEEFLSEAACMKDFSHPNVIRLLGVCIEMSSQGIPKPMVILPFMKYGDLHTYLLYSRLETGPKHIPLQTLLKFMVDIALGMEYLSNRNFLHRDLAARNCMLRDDMTVCVADFGLSKKIYSGDYYRQGRIAKMPVKWIAIESLADRVYTSKSDVWAFGVTMWEIATRGMTPYPGVQNHEMYDYLLHGHRLKQPEDCLDELYEIMYSCWRTDPLDRPTFSVLRLQLEKLLESLPDVRNQADVIYVNTQLLESSEGLAQGSTLAPLDLNIDPDSIIASCTPRAAISVVTAEVHDSKPHEGRYILNGGSEEWEDLTSAPSAAVTAEKNSVLPGERLVRNGVSWSHSSMLPLGSSLPDELLFADDSSEGSEVLM

binding: binds
B4: Myosin regulatory light chain 12A (protein, UniProt P19105 1-171)
chain: MSSKRTKTKTKKRPQRATSNVFAMFDQSQIQEFKEAFNMIDQNRDGFIDKEDLHDMLASLGKNPTDEYLDAMMNEAPGPINFTMFLTMFGEKLNGTDPEDVIRNAFACFDEEATGTIQEDYLRELLTTMGDRFTDEEVDELYREAPIDKKGNFNYIEFTRILKHGAKDKDD
